Values quoted from earlier work as cited in patent US20040002079A1.
For at least one compound, name, drawing or mass did not settle the structure.

System: bipolar mood disturbances (manic depression)

[Li] [lithium, Lithium]
bipolar patients responding to lithium therapy: About 50%
